Measured values from patent US9586891B2, “Estrogen receptor ligands” (Karo Pharma AB, priority 2011, dated 2017).
Some results were stated once for a whole list of compounds, not compound by compound.

The chains behind the UniProt entries cited, without tags or fusion partners. Residues count along the entry.
UniProt Q92731, 255-530: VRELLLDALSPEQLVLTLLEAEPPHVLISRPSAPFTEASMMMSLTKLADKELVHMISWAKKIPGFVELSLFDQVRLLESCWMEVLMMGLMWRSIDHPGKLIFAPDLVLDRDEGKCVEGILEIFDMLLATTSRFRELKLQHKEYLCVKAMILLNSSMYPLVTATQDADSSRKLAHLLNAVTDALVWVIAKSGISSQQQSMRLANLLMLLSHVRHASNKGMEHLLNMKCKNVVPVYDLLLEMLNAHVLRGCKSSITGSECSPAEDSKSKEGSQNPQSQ
UniProt Q92731, whole entry: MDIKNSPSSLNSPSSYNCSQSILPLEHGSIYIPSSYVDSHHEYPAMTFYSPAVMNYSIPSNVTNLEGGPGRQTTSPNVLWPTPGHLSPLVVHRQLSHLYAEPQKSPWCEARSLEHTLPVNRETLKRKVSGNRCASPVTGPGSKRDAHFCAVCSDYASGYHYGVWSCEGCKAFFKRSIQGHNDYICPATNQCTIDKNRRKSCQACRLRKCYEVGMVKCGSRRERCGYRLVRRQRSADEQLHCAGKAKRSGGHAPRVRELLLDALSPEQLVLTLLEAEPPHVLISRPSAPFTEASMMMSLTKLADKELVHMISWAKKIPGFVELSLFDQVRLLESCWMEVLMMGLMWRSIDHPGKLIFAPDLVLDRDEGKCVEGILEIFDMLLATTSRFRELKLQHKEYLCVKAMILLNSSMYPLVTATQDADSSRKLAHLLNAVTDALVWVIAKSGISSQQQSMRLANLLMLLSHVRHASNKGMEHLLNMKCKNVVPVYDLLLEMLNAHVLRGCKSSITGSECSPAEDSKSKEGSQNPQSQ

How the values were obtained:
[1] = molecular target: T1, human ERβ ligand binding domain (Homo sapiens, UniProt Q92731); experiment: Binding assays 1 and 2: estrogen receptor binding assay (SPA with 3H-E2; LanthaScreen TR-FRET competitive binding); conditions: in the binding assays 1 and 2
T1 construct: ERβ (ERβ-LBD, pET-N-AT #1, aa 255-530); biotinylation tag (biotinylated in vivo, pBirA); made in house; host or cells: E. coli BL21 (DE3) pBirA; crude extract supernatant

[2] = molecular target: T2, human estrogen receptor beta (Homo sapiens, UniProt Q92731); experiment: Transactivation assay 2: human embryonic kidney 293 cells stably transfected with pERE2-ALP and human estrogen receptor beta; format: cell-based; conditions: in the transactivation assays 1 and 2
T2 construct: expressed in transfected cells; host or cells: HEK293 (CRL-1573)

| Compound | selectivity for the estrogen receptor β-subtype over the estrogen receptor α-subtype [1] | selectivity for the estrogen receptor β-subtype over the estrogen receptor α-subtype [2] |
| --- | --- | --- |
| NC(=NO)c1cc(C(F)(F)F)cc(-c2ccc(O)cc2F)c1-c1cc(F)cc(F)c1 [Example 128, 2,3′′,5′′-trifluoro-N′,4-dihydroxy-5′-(trifluoromethyl)-[1,1′:2′,1′′-terphenyl]-3′-carboximidamide] | ≥ 20 | ≥ 20 |
| Cc1ccccc1-c1c(C(N)=NO)cc(Cl)cc1-c1ccc(O)cc1 [Example 79, 5′-chloro-N′,4-dihydroxy-2′′-methyl-[1,1′:2′,1′′-terphenyl]-3′-carboximidamide] | ≥ 20 | ≥ 20 |
| C#Cc1ccccc1-c1c(C(N)=NO)cc(C(F)(F)F)cc1-c1ccc(O)cc1F [Example 134, 2′′-ethynyl-2-fluoro-N′,4-dihydroxy-5′-(trifluoromethyl)-[1,1′:2′,1′′-terphenyl]-3′-carboximidamide] | ≥ 20 | ≥ 20 |
| NC(=NO)c1cc(C(F)(F)F)cc(-c2ccc(O)cc2)c1-c1cc(F)ccc1C(F)(F)F [Example 115, 5′′-fluoro-N′,4-dihydroxy-2′′,5′-bis(trifluoromethyl)-[1,1′:2′,1′′-terphenyl]-3′-carboximidamide] | ≥ 20 | ≥ 20 |
| C=Cc1ccccc1-c1c(C(N)=O)cc(C(F)(F)F)cc1-c1ccc(O)cc1F [Example 131, 2-fluoro-4-hydroxy-5′-(trifluoromethyl)-2′′-vinyl-[1,1′:2′,1′′-terphenyl]-3′-carboxamide] | ≥ 20 | ≥ 20 |
| Cc1cc(C(N)=NO)c(-c2ccccc2)c(-c2ccc(O)cc2)c1 [Example 150, N′,4-dihydroxy-5′-methyl-[1,1′:2′,1′′-terphenyl]-3′-carboximidamide] | ≥ 20 | ≥ 20 |
| CCCc1cc(C(N)=NO)c(-c2cc(F)ccc2Cl)c(-c2ccc(O)cc2)c1 [Example 82, 2′′-chloro-5′′-fluoro-N′,4-dihydroxy-5′-propyl-[1,1′:2′,1′′-terphenyl]-3′-carboximidamide] | ≥ 20 | ≥ 20 |
| CCc1ccccc1-c1c(C(N)=NO)cc(C(F)(F)F)cc1-c1ccc(O)cc1 [Example 107, 2′′-ethyl-N′,4-dihydroxy-5′-(trifluoromethyl)-[1,1′:2′,1′′-terphenyl]-3′-carboximidamide] | ≥ 20 | – |
| COc1ccc(Cl)cc1-c1c(C(N)=NO)cc(C(F)(F)F)cc1-c1ccc(O)cc1 [Example 112, 5′′-chloro-N′,4-dihydroxy-2′′-methoxy-5′-(trifluoromethyl)-[1,1′:2′,1′′-terphenyl]-3′-carboximidamide] | ≥ 20 | – |
| COc1ccc(F)cc1-c1c(C(N)=NO)cccc1-c1ccc(O)cc1 [Example 103, 5′′-fluoro-N′,4-dihydroxy-2′′-methoxy-[1,1′:2′,1′′-terphenyl]-3′-carboximidamide] | ≥ 20 | – |
| Cc1noc(C)c1-c1c(C(N)=NO)cc(C(F)(F)F)cc1-c1ccc(O)cc1 [Example 159, 2-(3,5-dimethylisoxazol-4-yl)-N′,4′-dihydroxy-5-(trifluoromethyl)-[1,1′-biphenyl]-3-carboximidamide] | ≥ 20 | – |
| Cc1noc(C)c1-c1c(C(N)=NO)cc(C(F)(F)F)cc1-c1ccc(O)cc1F [Example 184, 2-(3,5-dimethylisoxazol-4-yl)-2′-fluoro-N′,4′-dihydroxy-5-(trifluoromethyl)-[1,1′-biphenyl]-3-carboximidamide] | ≥ 20 | – |
| C#Cc1ccccc1-c1c(C(N)=NO)cc(C(F)(F)F)cc1-c1ccc(O)cc1 [Example 113, 2′′-ethynyl-N′,4-dihydroxy-5′-(trifluoromethyl)-[1,1′:2′,1′′-terphenyl]-3′-carboximidamide] | ≥ 20 | – |
| CCCc1cc(C(N)=O)c(-c2ccccc2C)c(-c2ccc(O)cc2)c1F [Example 98, 6′-fluoro-4-hydroxy-2′′-methyl-5′-propyl-[1,1′:2′,1′′-terphenyl]-3′-carboxamide] | ≥ 20 | – |
| COc1ccc(F)cc1-c1c(C(N)=O)cc(Cl)cc1-c1ccc(O)cc1 [Example 101, 5′-chloro-5′′-fluoro-4-hydroxy-2′′-methoxy-[1,1′:2′,1′′-terphenyl]-3′-carboxamide] | ≥ 20 | – |
| Cc1ccc(F)cc1-c1c(C(N)=NO)cc(C(F)(F)F)cc1-c1ccc(O)cc1 [Example 41, 5′′-fluoro-N′,4-dihydroxy-2′′-methyl-5′-(trifluoromethyl)-[1,1′:2′,1′′-terphenyl]-3′-carboximidamide] | ≥ 20 | – |
| Cc1ccc(F)cc1-c1c(C(N)=NO)cc(Cl)cc1-c1ccc(O)cc1 [Example 76, 5′-chloro-5′′-fluoro-N′,4-dihydroxy-2′′-methyl-[1,1′:2′,1′′-terphenyl]-3′-carboximidamide] | ≥ 20 | – |
